According to PMC11658772:
Positions count from the first letter of the chain named. Results are given in words; binding and its absence hold for the method and conditions named. In cells and extracts the contact can be indirect. Some entries that bind do so weakly or less than the wild type. Sequences can lack the tags named with a protein.

Experiments:
[1] = biological target: T1, MSL1^2A-3xHA (F5A W7A) (Drosophila melanogaster) (UniProt P50535); test: co-IP; Drosophila S2 cells co-transfected with MSL1*-3xHA and MSL2-3xFLAG, 48 hr; extract made with 420 mM NaCl; immunoprecipitation with anti-FLAG, anti-HA or mouse IgG (negative control) magnetic beads in buffer-150 (20 mM Tris-HCl pH 7.4, 150 mM NaCl, 10 mM MgCl2, 0.1% NP-40), overnight at 4 °C; immunoblot with anti-FLAG-HRP
T1 sequence: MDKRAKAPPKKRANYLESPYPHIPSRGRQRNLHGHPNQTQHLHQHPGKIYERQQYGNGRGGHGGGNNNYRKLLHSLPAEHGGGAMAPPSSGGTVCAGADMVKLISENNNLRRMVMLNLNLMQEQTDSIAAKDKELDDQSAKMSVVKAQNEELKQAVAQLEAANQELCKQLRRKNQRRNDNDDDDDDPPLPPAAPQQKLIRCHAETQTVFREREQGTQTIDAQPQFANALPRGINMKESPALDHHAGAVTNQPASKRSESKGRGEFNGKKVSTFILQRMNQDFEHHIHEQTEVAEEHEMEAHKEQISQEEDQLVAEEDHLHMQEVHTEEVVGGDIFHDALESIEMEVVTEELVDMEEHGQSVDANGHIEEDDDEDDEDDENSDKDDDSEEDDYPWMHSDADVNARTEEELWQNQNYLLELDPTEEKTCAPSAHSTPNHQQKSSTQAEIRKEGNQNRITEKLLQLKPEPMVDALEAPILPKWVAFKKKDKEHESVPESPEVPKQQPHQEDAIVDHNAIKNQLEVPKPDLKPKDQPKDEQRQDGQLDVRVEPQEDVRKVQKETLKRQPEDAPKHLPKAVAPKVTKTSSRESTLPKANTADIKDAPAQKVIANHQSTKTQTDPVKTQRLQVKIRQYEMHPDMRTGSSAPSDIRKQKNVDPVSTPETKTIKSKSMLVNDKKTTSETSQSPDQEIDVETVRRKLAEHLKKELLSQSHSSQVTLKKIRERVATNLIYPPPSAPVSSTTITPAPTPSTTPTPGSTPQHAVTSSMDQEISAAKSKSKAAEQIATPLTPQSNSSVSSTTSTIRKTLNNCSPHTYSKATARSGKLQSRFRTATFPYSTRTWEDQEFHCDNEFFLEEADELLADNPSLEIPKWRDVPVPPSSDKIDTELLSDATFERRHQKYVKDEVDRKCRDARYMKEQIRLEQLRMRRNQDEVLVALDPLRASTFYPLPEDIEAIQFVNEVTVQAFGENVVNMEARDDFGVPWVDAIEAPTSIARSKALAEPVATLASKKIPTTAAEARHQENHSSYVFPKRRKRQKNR

[2] = biological target: T2, MSL1^3S-3xHA (K3S R4S K6S) (Drosophila melanogaster) (UniProt P50535); test: as above
T2 sequence: T1 sequence with K3S, R4S, A5F, K6S, A7W

- binding [1]: binds
- binding [2]: binds
B1: MSL2-3xFLAG (protein, UniProt P50534 1-773)
chain: MAQTAYLKVTRIAMRSASNLSKRRVEELNSGLGELRQLLSCVVCCQLLVDPYSPKGKRCQHNVCRLCLRGKKHLFPSCTQCEGCSDFKTYEENRMMAAQLLCYKTLCVHLLHSALFGELAGMRPQVARELVPRIKLPPKTTQEFIREGSNISDTFDIFLPQPDLPFLKDMPTSLPAETPPTSAVTTPELPYDHHLNISDIEAEAAATAEQGHFSPLPLLPTGSRMGMLSHAGQIVIATESSESGFMDQAWTDQVDLSGTVSVSKYTNSGNNFAVSYVMPTSATTKFDPQELQIGQVVQMADSTQLAVLAAVEETVETSTQLTVLSTTVEETVETSTQLEVLTSAEEPNEISDQLANLQVEESDEALVEETVEEAEGTSIPSEVVAEHMEEDQHLDVHTSQSPTQTEMEEAVEEHVATKTQLGHVQTELQDAESLQKDFEDAKAAAEEAKEKEKDLHAISAELQKEDSDEPTLKRKRTRTLKASQAAKIEPVPSEVKTKVQSGKGALRRIRGKDKEEKVKPPKPKCRCGISGSSNTLTTCRNSRCPCYKSYNSCAGCHCVCCKNPHKEDYVESDEDDDLEDFEMPKDVPEPMTQSEEPVVAEPRQEENSMAPPDSSAPISLVPLNNLQQSQHPLVLVQNEKGEYQGFNIFQGSKPLDPVTVGFTIRVQLQHTDGFGSLPQYAYIMPTIDPPNPPAPSLSPPPPPAPDREVIEPPAKKFRTSRTRRGRANFSALDTVDELVSGGSRSNSAAGDRSSATDNAHSLFEEIMSGSDDL
